Compound in the test: CCc1cnccc1C(=O)Nc1cc2c(cc1F)NC(=O)CC2
Description: melting temperature shift (DMSO Tm minus MBE1-treated Tm) in cellular thermal proteome profiling; higher = less thermal stabilization by MBE1 (negative = stabilized by MBE1). As to conditions: A375.

Sequences of proteins named here, by UniProt entry; tags and fusion partners are left off. A change or cut given only in a name is not applied to a line headed by its entry.
UniProt O43237, whole entry: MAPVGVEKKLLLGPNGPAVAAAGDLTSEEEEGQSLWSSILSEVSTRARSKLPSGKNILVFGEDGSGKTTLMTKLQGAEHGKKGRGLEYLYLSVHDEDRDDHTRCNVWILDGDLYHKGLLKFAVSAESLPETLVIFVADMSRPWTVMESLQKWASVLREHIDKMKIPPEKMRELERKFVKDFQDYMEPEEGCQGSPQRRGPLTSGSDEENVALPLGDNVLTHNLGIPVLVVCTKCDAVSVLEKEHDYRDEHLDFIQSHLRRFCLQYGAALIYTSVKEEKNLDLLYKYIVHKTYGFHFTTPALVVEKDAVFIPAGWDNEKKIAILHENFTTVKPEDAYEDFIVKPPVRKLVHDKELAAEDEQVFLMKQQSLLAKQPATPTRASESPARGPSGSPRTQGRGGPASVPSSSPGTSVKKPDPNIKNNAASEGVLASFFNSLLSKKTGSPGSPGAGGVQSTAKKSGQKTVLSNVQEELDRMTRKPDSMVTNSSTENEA
UniProt A5YKK6, whole entry: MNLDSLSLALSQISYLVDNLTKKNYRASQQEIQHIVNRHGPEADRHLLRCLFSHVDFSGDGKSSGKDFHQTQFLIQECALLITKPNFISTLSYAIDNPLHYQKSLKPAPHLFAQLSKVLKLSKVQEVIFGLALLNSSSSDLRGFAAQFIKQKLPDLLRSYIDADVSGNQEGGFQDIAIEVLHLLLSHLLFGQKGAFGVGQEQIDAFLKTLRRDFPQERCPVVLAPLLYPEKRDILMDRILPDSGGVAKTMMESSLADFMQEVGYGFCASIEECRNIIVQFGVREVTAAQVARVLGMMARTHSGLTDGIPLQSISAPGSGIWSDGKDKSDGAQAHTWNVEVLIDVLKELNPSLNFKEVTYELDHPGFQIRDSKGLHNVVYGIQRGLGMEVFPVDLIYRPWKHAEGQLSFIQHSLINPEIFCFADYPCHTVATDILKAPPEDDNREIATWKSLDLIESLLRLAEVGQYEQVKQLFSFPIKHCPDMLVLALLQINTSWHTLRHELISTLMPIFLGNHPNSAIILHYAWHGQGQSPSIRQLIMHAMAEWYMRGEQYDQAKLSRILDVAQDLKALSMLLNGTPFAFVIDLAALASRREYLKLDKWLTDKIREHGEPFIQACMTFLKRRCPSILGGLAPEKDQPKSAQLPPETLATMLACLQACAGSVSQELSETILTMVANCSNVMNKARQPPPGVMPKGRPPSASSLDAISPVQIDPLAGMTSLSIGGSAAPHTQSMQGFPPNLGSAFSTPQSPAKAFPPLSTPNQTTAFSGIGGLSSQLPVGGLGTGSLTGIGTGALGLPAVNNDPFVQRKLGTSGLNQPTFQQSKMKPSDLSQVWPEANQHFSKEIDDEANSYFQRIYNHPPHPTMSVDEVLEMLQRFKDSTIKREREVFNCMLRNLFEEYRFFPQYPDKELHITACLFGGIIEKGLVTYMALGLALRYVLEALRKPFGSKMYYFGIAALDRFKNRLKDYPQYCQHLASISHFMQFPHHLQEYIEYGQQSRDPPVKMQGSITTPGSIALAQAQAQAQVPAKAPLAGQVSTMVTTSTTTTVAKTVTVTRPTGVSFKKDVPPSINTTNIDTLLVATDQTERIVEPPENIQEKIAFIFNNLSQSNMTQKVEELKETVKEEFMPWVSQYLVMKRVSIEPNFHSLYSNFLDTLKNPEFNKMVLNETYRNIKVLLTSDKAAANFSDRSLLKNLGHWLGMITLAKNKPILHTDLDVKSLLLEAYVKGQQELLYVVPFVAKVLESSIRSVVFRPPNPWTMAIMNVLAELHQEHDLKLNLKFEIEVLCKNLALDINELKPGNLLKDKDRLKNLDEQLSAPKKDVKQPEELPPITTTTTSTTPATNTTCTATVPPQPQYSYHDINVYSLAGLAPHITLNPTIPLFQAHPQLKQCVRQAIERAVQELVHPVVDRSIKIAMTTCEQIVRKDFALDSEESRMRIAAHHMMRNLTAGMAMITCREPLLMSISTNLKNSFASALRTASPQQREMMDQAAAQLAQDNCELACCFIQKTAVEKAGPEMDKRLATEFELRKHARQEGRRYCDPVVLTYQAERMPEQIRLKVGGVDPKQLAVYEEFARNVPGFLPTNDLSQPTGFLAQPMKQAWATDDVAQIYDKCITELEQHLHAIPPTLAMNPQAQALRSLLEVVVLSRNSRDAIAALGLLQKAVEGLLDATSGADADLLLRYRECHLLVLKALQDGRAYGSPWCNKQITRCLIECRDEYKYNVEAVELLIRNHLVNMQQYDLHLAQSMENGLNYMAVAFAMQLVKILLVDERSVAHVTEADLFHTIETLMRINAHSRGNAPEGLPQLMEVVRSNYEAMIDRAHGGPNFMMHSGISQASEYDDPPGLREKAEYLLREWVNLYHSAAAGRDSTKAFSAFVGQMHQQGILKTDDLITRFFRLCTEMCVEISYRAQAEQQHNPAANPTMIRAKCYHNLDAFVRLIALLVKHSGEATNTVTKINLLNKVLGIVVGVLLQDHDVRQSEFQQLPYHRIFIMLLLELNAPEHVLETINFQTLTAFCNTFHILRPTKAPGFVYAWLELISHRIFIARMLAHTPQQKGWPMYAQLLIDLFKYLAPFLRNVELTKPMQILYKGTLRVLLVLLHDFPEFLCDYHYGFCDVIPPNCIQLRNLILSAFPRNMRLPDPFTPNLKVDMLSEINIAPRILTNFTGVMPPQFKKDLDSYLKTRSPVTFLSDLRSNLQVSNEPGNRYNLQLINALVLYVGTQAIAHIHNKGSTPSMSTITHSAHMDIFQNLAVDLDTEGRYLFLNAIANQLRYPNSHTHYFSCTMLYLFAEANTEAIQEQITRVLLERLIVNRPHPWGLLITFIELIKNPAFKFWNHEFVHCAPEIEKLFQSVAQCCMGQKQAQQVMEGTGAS
UniProt A6NED2: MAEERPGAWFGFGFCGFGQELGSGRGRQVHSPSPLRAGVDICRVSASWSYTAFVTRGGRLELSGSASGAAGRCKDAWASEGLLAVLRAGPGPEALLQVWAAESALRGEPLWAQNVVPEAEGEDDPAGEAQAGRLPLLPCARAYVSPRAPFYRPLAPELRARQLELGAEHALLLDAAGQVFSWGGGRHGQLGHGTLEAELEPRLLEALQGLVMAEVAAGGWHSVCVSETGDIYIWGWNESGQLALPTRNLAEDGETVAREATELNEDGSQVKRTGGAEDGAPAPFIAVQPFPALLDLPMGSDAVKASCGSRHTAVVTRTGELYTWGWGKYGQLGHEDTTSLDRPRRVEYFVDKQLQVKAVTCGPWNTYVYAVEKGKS
UniProt A8CG34, whole entry: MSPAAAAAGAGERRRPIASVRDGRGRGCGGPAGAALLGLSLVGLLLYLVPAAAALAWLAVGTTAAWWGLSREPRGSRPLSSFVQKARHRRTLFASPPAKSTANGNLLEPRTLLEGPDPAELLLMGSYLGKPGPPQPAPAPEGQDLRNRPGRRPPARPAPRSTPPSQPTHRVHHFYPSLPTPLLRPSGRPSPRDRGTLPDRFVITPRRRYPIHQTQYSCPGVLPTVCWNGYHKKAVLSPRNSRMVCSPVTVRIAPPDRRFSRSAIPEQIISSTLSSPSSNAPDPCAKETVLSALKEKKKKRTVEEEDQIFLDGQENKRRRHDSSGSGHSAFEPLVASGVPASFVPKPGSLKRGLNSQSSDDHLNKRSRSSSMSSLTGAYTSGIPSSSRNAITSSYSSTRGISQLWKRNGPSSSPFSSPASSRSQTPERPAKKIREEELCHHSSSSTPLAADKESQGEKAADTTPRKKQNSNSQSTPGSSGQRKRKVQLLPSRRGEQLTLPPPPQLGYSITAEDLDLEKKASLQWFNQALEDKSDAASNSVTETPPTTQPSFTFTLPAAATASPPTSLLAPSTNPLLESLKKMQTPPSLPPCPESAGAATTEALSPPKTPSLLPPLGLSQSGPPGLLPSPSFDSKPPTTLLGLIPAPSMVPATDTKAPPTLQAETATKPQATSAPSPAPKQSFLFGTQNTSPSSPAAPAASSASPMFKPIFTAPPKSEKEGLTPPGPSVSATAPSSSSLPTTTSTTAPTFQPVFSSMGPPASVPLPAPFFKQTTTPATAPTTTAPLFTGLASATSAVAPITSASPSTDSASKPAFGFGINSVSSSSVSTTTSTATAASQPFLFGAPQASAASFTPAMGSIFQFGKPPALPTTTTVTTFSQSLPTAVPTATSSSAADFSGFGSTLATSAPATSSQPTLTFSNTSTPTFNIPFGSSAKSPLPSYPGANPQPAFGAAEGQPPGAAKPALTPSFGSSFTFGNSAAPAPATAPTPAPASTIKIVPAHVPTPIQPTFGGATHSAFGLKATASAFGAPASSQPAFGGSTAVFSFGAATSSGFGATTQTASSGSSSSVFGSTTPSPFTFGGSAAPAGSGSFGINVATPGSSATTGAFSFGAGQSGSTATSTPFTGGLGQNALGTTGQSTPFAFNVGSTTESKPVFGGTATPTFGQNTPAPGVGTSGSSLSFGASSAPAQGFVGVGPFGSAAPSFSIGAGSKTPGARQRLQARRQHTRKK
UniProt O00422: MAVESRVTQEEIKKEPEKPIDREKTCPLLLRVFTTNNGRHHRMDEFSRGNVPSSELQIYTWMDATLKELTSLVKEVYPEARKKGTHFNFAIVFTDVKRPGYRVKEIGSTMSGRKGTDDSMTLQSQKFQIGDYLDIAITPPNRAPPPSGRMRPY
UniProt O00459, whole entry: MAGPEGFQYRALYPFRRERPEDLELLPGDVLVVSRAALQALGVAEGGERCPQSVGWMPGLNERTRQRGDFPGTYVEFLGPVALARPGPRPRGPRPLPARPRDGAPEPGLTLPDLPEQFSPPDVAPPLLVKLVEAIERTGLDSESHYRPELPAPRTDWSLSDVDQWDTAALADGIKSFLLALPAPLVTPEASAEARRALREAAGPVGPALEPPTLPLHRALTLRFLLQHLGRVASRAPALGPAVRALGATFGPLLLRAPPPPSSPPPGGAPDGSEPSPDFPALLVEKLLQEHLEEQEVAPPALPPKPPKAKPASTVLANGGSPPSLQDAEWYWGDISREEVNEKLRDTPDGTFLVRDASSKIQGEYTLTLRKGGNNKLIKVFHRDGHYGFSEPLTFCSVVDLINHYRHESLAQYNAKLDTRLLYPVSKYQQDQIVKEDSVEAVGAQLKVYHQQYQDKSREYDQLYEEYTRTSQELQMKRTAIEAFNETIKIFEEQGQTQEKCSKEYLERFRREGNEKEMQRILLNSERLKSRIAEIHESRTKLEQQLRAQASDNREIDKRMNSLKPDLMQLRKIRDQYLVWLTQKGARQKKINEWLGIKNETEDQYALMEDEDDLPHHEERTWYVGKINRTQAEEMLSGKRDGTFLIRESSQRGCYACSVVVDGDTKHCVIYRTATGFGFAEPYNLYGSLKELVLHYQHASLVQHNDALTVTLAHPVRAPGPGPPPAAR
UniProt O15228: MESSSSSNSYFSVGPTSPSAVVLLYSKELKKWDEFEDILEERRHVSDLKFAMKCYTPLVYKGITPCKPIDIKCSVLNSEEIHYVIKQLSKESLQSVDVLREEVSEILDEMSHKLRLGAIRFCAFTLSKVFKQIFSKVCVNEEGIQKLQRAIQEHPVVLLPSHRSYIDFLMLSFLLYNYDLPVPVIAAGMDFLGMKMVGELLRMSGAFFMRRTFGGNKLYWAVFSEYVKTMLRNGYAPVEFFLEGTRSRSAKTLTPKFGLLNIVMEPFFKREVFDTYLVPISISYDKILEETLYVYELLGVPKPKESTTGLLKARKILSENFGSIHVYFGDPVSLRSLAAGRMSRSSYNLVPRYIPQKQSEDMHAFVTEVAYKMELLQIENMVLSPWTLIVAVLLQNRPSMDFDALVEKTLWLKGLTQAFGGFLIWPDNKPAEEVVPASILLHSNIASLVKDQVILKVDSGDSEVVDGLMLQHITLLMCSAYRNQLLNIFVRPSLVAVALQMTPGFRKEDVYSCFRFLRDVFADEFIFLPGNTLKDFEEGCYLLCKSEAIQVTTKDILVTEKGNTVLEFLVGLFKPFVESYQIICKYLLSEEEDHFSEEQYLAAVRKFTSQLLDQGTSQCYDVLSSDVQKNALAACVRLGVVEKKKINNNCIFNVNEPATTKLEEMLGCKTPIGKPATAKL
UniProt O15121: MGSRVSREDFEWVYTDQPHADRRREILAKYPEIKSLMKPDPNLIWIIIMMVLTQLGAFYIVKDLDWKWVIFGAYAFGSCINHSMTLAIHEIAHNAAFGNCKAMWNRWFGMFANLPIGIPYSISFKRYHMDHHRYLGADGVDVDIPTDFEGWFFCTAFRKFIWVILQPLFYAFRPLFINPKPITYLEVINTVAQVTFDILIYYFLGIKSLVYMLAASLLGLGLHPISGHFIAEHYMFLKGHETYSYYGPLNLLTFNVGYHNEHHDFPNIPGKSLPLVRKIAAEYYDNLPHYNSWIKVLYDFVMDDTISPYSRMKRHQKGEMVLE
UniProt O15318: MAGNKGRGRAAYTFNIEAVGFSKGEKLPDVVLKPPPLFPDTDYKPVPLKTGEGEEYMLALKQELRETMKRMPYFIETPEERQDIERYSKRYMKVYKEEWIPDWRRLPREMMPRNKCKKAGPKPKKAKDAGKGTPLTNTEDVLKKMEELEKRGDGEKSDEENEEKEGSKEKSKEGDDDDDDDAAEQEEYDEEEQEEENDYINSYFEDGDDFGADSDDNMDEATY

The list shows a part of the results. The data scatter; read single values as rough.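 Tm was set to 64 °C where no melting was found, and many curves are irregular.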

For the target POLR3A (UniProt O14802), the melting temperature shift (MBE1 concentration: 100 nM) is -0.757 °C and the melting temperature shift (MBE1 concentration: 1 uM) is -0.461 °C.
For ZZEF1 (UniProt O43149) the same measures were 0.122 °C and 1.04 °C.
For DYNC1LI2 (UniProt O43237) the same measures were 1.03 °C and 1.22 °C.
For CNOT1 (UniProt A5YKK6) the same measures were 0.403 °C and -0.00611 °C.
On to POLR1C (UniProt O15160), for which the melting temperature shift is -1.17 °C (MBE1 concentration: 100 nM) and -0.0518 °C (MBE1 concentration: 1 uM).
For NDUFS4 (UniProt O43181), the melting temperature shift reads like this: (MBE1 concentration: 100 nM) -1.62 °C; (MBE1 concentration: 1 uM) 2.43 °C.
With UniProt B7ZAP0, the melting temperature shift reads like this: (MBE1 concentration: 100 nM) -0.837 °C; (MBE1 concentration: 1 uM) -0.385 °C.
For UniProt O14757 the same measures were 0.241 °C and 0.0977 °C.
The matching figures for RCCD1 (UniProt A6NED2): -0.262 °C and 0.671 °C.
Consider POM121C (UniProt A8CG34), for which the melting temperature shift reads like this: (MBE1 concentration: 100 nM) 1.06 °C; (MBE1 concentration: 1 uM) 1.32 °C.
Turning to NFIB (UniProt O00712), the melting temperature shift is, setting by setting: (MBE1 concentration: 100 nM) -3.4 °C; (MBE1 concentration: 1 uM) -3.34 °C.
The matching figures for SAP18 (UniProt O00422): 3.83 °C and 2.38 °C.
For PIK3R2 (UniProt O00459) the same measures were 0.348 °C and 0.0244 °C.
Turning to GNPAT (UniProt O15228), the melting temperature shift reads like this: (MBE1 concentration: 100 nM) -0.537 °C; (MBE1 concentration: 1 uM) 0.943 °C.
For PIK3C2A (UniProt O00443) the same measures were -0.923 °C and 0.198 °C.
The matching figures for EEF2K (UniProt O00418): -0.601 °C and -0.189 °C.
For DEGS1 (UniProt O15121) the same measures were -0.543 °C and -1.61 °C.
Regarding POLR3G (UniProt O15318), the melting temperature shift runs as follows: (MBE1 concentration: 100 nM) -0.651 °C; (MBE1 concentration: 1 uM) -0.818 °C.
For UniProt O14965 the same measures were -0.709 °C and 0.891 °C.
The matching figures for UniProt O14786: -1.57 °C and 0.183 °C.
The matching figures for RTCA (UniProt O00442): -1.54 °C and 1.65 °C.

The values are drawn from the supplement of paper PMC12595434, “Development of retinoid nuclear receptor pathway antagonists through targeting aldehyde dehydrogenase 1A3” (iScience, 2025).
